Reference: PubChem BioAssay AID1347076 (National Center for Advancing Translational Sciences (NCATS), 2019)
Among all 400,000 compounds or so, about 13,000 (3.2%) were called active. Inconclusive results, whose numbers are uncertain, are shown with a selection of clear calls. Calls follow the shape of the dose curve; as a rule, active = well fitted cell-killing curve with a large enough effect; inconclusive = small, poorly fitted or top-dose-only effect, or effect the other way; inactive = flat fitted curve, though single readings scatter. Where the call is inconclusive, the potency comes from a doubtful curve fit.

Assay: qHTS assay for MDR1-selective chemotherapeutics: Primary screen using the drug-selected MDR subline cells KB-V1; also: nearly all actives have a fitted effect of over 60% in size
Settings: KB-V1 MDR cells viability, CellTiter-Glo, 72 h; activity change, negative = cytotoxicity: at 46.1 µM (top of the series)
Method in brief: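 KB-V1 cells (P-gp-expressing MDR subline of KB-3-1) in phenol-red-free DMEM with 10% FBS were exposed to library compounds over a concentration series for 72 h at 37 degrees C. Viability read by CellTiter-Glo luminescence; concentration-effect curves fitted after normalization.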
% is scaled to controls: 0 for no effect and ±100 for the full control effect; potency is read from the fitted curve at half-maximal effect.

Structure (SMILES)	activity change, negative = cytotoxicity	Potency
COc1ccc(C)cc1S(=O)(=O)Nc1cccc(-c2ccc(N3CCCC3)nn2)c1	inactive: 19.5%	–
CCc1ccc(Nc2nc(N3CCOCC3)nc(N3CCOCC3)n2)cc1	inactive: -7.09%	–
COc1ccc(NC(=O)CC2C(=O)N(C)C(=S)N2Cc2ccc3c(c2)OCO3)cc1 (stereo unspecified)	–	active: 14.6 µM
O=C(NC1CCCCC1)Sc1ccc(Cl)cc1	–	inconclusive: 29.1 µM [cytotoxic, single point]
CC1(NC(=O)c2cccc(S(=O)(=O)N3CCCc4ccccc43)c2)CCS(=O)(=O)C1 (stereo unspecified)	–	inconclusive: 20.6 µM [cytotoxic, partial curve, poor fit]
Cn1c(=O)c2c(nc(CN3CCN(c4ccc(F)cc4)CC3)n2Cc2ccccc2F)n(C)c1=O	–	inconclusive: 9.2 µM [cytotoxic, partial curve]
Cc1ccc(NS(=O)(=O)c2ccc(-c3cnc(C4CC4)o3)cc2)cc1	–	inconclusive: 18.4 µM [cytotoxic, single point]
CCN1C(=O)N[C@@H](c2ccco2)C(C(C)=O)=C1C	–	inconclusive: 16.4 µM [rising, partial curve, poor fit]
COC(=O)c1sc(NC(=O)COc2cccnc2[N+](=O)[O-])c(C(=O)OC)c1C	inactive: -12.6%	–
Cc1cccc(NC(=S)NNC(=O)c2csc(C(C)C)c2)c1	–	active: 20.6 µM
Cc1cc(C(C)(C)C)cc(C)c1S(=O)(=O)N1CC(=O)Nc2ccccc21	inactive: 3.41%	–
C=CCN(C(=O)c1csnn1)C(C(=O)NC1CCCC1)c1c(F)cccc1Cl (stereo unspecified)	–	inconclusive: 16.4 µM [cytotoxic, partial curve, poor fit]
C[C@H](CO)N1C[C@H](C)[C@@H](CN(C)C(=O)Nc2ccccc2)Oc2ccc(NC(=O)C3CC3)cc2C1=O	inactive: -0.0121%	–
Cc1ccc2ncc(C(=O)Nc3cccc(C(F)(F)F)c3)c(=O)n2c1	–	inconclusive: 20.6 µM [rising, single point]
Cc1cc2nnc(SCC(=O)NCc3cccs3)n2c2ccccc12	inactive: 0.362%	–
O=C(CSc1nc2ccc(Cl)cc2[nH]1)NCCc1ccc(Cl)cc1	inactive: -4.67%	–
O=C(CN1CCCC1)Nc1c2c(nc3ccccc13)N(Cc1ccccc1)CC2	–	active: 23.1 µM
COc1cccc(-n2cc(C(=O)Oc3ccc(F)cc3)c3ccccc3c2=O)c1	inactive: -6.4%	–
Cc1ccn(CC(=O)N2CCCC(N3CCN(c4cccc(C(F)(F)F)c4)CC3)C2)n1 (stereo unspecified)	–	inconclusive: 29.1 µM [cytotoxic, single point]
CCO[C@H]1OC(C(=O)NC2CC2)=C[C@@H](c2ccccc2)[C@@H]1CCCO	inactive: 2.42%	–
OCC1(Cc2ccccc2Cl)CCN(C/C=C/c2ccccc2)CC1	inactive: -16.5%	–
Fc1ccccc1Cc1noc(CN2CCN(C/C=C/c3ccccc3)CC2)n1	–	inconclusive: 4.61 µM [cytotoxic, partial curve, poor fit]
CCOc1cccc(CNCc2ccncc2)c1	inactive: -0.0657%	–
Cc1c(C)n(Cc2ccccc2)c2ccc(C(=O)NCCN3CCOCC3)cc12	inactive: -29.5%	–

Structure (SMILES)	activity change, negative = cytotoxicity	Potency
COc1ccc(C(=O)COC(=O)c2cc(C)no2)c(OC)c1	–	inconclusive: 29.1 µM [rising, single point]
Cc1noc2ncnc(N3CCCC(C(=O)NCCC(C)C)C3)c12 (stereo unspecified)	–	inconclusive: 4.61 µM [cytotoxic, full curve]
COc1ccc(S(=O)(=O)N2CCC(c3nnc(-c4ccccc4C)o3)CC2)c(OC)c1	inactive: 0.306%	–
COc1ccc(NC(=O)CN(C)C(=O)C2(c3ccccc3)CCCC2)cc1	–	inconclusive: 13 µM [cytotoxic, single point]
CN(C)c1nnc(-c2ccc(Cl)cc2)o1	–	inconclusive: 14.6 µM [rising, single point]
COc1ccc(N(C(=O)c2snc(C(N)=O)c2N)C(C(=O)NCc2ccccc2)c2ccc(O)cc2)cc1 (stereo unspecified)	inactive: 24.4%	–
COc1cccc(-n2c(SCC(=O)Nc3sc4c(c3C(N)=O)CCC4)nc3ccccc3c2=O)c1	–	inconclusive: 1.64 µM [cytotoxic, full curve]
Cc1ccccc1NS(=O)(=O)c1cc(C(=O)Nc2cccnc2)ccc1C	–	inconclusive: 18.4 µM [cytotoxic, single point]
COc1ccc(C2=NN(Cc3ccccc3)C3C(=O)NC(=O)C23)cc1 (stereo unspecified)	inactive: 2.89%	–
Cc1ccc(S(=O)(=O)c2c(Nc3ccccc3)sc(C(=O)c3ccc4c(c3)OCO4)c2N)cc1	–	inconclusive: 6.51 µM [cytotoxic, partial curve]
COC(=O)CNC(c1ccccc1Cl)c1cc(Br)ccc1NS(=O)(=O)c1ccc(C)cc1 (stereo unspecified)	–	active: 18.4 µM
Cc1oc(-c2ccccc2F)nc1CSCC(=O)NC1CCC(C)CC1 (stereo unspecified)	–	inconclusive: 6.51 µM [cytotoxic, partial curve]
CC(=O)c1cccc(NS(=O)(=O)c2ccc(C(=O)Nc3ccccc3)cc2)c1	–	inconclusive: 4.61 µM [cytotoxic, full curve, poor fit]
COc1cccc(NC(C(=O)Nc2cccc(C(C)=O)c2)c2ccccc2)c1 (stereo unspecified)	–	inconclusive: 16.4 µM [cytotoxic, partial curve]
O=C(N/N=C/c1sc(N2CCCCC2)nc1-c1cccs1)C1CC1	inactive: -7.45%	–
COc1cc(NC(=O)c2cc(-c3ccccc3)nc3c2cnn3C(C)C)cc(OC)c1OC	–	inconclusive: 20.6 µM [cytotoxic, single point]
O=C1CCCN1c1ccc(S(=O)(=O)NCCc2ccc(Cl)cc2)cc1	–	active: 18.4 µM
C/C(=N/NC(=O)CNC(=O)C1COc2ccccc2O1)c1ccc([N+](=O)[O-])cc1 (stereo unspecified)	inactive: 9.78%	–
Cc1ccccc1C(=O)NCC(=O)OCC(=O)NC(C)C1CC2CCC1C2 (stereo unspecified)	–	inconclusive: 29.1 µM [rising, single point]
CCOc1ccccc1N1CCN(C(=O)c2ccc(OCC(=O)N3CCOCC3)c(OC)c2)CC1	–	inconclusive: 29.1 µM [rising, single point]
CCc1nnc(SCC(=O)NC2CC2)n1CC	inactive: 19.4%	–
CCOC(=O)CCCCCC(=O)Nc1ccc2c(c1)C(=O)N([C@H](C)CO)C[C@H](C)[C@@H](CN(C)S(C)(=O)=O)OCCCC[C@@H](C)O2	–	inconclusive: 29.1 µM [rising, partial curve, poor fit]
N#Cc1cccnc1Oc1ccccc1	inactive: -2.07%	–
Cc1ccc(CSc2nc3c(c(N(C)C)n2)CCCC3)cc1	–	inconclusive: 29.1 µM [cytotoxic, single point]

Structure (SMILES)	activity change, negative = cytotoxicity	Potency
CCOc1ccccc1Nc1cc(C)nc2ccccc12	–	inconclusive: 20.6 µM [cytotoxic, single point]
COCCN=c1scc(-c2cccs2)n1/N=C/c1ccc(O)c(O)c1O	–	inconclusive: 18.4 µM [cytotoxic, single point]
Cn1cc(C(=O)O)c(=O)c2cc(S(=O)(=O)N3CCCCC3)ccc21	inactive: -16.8%	–
CC(C)CN(C(=O)COC(=O)COc1ccc2ccccc2c1)c1c(N)n(Cc2ccccc2)c(=O)[nH]c1=O	inactive: 4.94%	–
CCOc1ccc(C(C)C)cc1S(=O)(=O)Nc1cccc(-c2ccc(N3CCOCC3)nn2)c1	–	inconclusive: 0.58 µM [cytotoxic, full curve, poor fit]
COCCCN1C(=O)C(CC(=O)NC2CCCC2)CC(C(=O)N2CCOCC2)=C1C (stereo unspecified)	inconclusive: 6.83%	–
Cc1ccc(C(C)C)c(OCC(=O)Nn2c(=O)[nH]c3ccccc3c2=O)c1	–	active: 20.6 µM
CCC(C)NC(=S)N1CCN(C)CC1 (stereo unspecified)	inactive: -2.32%	–
Cc1ccccc1-n1c(Cc2cccs2)n[nH]c1=S	inactive: -22.4%	–
Cc1ccccc1N=C1NC(=O)/C(=C/c2cccn2C)S1	–	active: 7.31 µM
COc1ccc(/C=C/c2nc3ccccc3n2Cc2ccc(OC)c(OC)c2)cc1	–	inconclusive: 8.2 µM [cytotoxic, partial curve, poor fit]
CC(C)c1ccc(S(=O)(=O)N2CCN(C(=O)C3=COCCO3)CC2)cc1	–	inconclusive: 29.1 µM [cytotoxic, single point]
Cc1cc(C)cc(N(C(=O)c2snc(C(N)=O)c2N)C(C(=O)NCC2CCCO2)c2cccs2)c1 (stereo unspecified)	–	inconclusive: 0.58 µM [cytotoxic, full curve]
CCSc1ncnc2c(C#N)c3n(c12)CCCCC3	–	inconclusive: 11.6 µM [cytotoxic, partial curve]
Cc1ccc(N(C(=O)Cn2nnc(-c3ccc(F)cc3)n2)C(CC(C)C)C(=O)NCC2CCCO2)cc1 (stereo unspecified)	–	inconclusive: 4.61 µM [cytotoxic, full curve]
Cc1ccc(-c2ccc(C#N)c(=O)n2CC(=O)N(C)C)cc1	–	inconclusive: 25.9 µM [cytotoxic, partial curve, poor fit]
Cc1cc(N2C(=O)C(O)=C(C(=O)c3cccs3)C2c2ccc(F)cc2)no1 (stereo unspecified)	–	inconclusive: 16.4 µM [cytotoxic, single point]
O=C(Nc1cccc(F)c1)C1CC(=O)N(c2ccc(Br)cc2)C1 (stereo unspecified)	inactive: -1.92%	–
Cc1ccc2nc(C(C)(C)C)c(Cc3ccsc3)n2c1	–	inconclusive: 11.6 µM [cytotoxic, partial curve, poor fit]
Cc1ccc(NC(=O)c2ccc([N+](=O)[O-])o2)c(C)c1	–	inconclusive: 0.82 µM [cytotoxic, full curve, poor fit]
CSc1ccccc1-c1nnc(-c2ccc(C)cc2)o1	–	inconclusive: 10.3 µM [cytotoxic, partial curve]
CCCn1nnc(NC(=O)COc2cc(C)ccc2C(C)C)n1	–	inconclusive: 29.1 µM [cytotoxic, single point]
CC(=O)c1ccc(NC(=O)Cn2c(-n3nc(C)cc3C)nc(C)cc2=O)cc1	–	inconclusive: 29.1 µM [cytotoxic, single point]

Arranged by SMILES length (smallest number first): part of the list above
Structure (SMILES)	activity change, negative = cytotoxicity	Potency
CCSc1ncnc2c(C#N)c3n(c12)CCCCC3	–	inconclusive: 11.6 µM [cytotoxic, partial curve]
CCCn1nnc(NC(=O)COc2cc(C)ccc2C(C)C)n1	–	inconclusive: 29.1 µM [cytotoxic, single point]
Cc1ccc(NC(=O)c2ccc([N+](=O)[O-])o2)c(C)c1	–	inconclusive: 0.82 µM [cytotoxic, full curve, poor fit]
COCCN=c1scc(-c2cccs2)n1/N=C/c1ccc(O)c(O)c1O	–	inconclusive: 18.4 µM [cytotoxic, single point]
CC(=O)c1ccc(NC(=O)Cn2c(-n3nc(C)cc3C)nc(C)cc2=O)cc1	–	inconclusive: 29.1 µM [cytotoxic, single point]
